PubChem BioAssay AID1259405 – NCATS, 2018
In all, the deposit lists about 50,000 reagents; shown is a random part of them. About 4,000 of all reagents (8%) count as active. 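Mouse siRNA library applied to hamster cells; one well for each siRNA.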 Unmarked entries are inactive. Reagents against one gene are numbered here.

Aim: 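Silenced genes that increase secreted GFP made by CHO cells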 (primary screen)
Cell system: Chinese hamster CHO-K1 ovary cells with stable secreted eGFP expression
Reagents: single siRNA against mouse genes, 0.8 pmol siRNA per well (2 µl of 400 nM stock)
Timing: 3 days
Measurement: 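Percent of the per-plate non-targeting control median for intracellular GFP per well by laser scanning cytometry and for cell viability by ATP luminescence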
Direction: GFP, % of control: higher = more GFP per well, higher productivity; viability (ATP), % of control: higher = more viable cells (more ATP)
Active means: 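Called active when intracellular GFP, relative to negative control, is at or above 120%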

With knock-down of Tspan11 #1, the record shows GFP, % of control 85.7; viability (ATP), % of control 68.3.
With knock-down of Tspan11 #2 the results were GFP, % of control 85.2; viability (ATP), % of control 80.8.
Tspan11 #3 scored GFP, % of control 70.8; viability (ATP), % of control 74.
Atp5me #1 scored GFP, % of control 113; viability (ATP), % of control 83.5.
Against Atp5me #2, the values are GFP, % of control 57.2; viability (ATP), % of control 49.8.
Against Bend3 #1, the entry reads GFP, % of control 138 (active); viability (ATP), % of control 76.6.
After knock-down of Bend3 #2 the results were GFP, % of control 79.4; viability (ATP), % of control 96.1.
With knock-down of Bend3 #3, the screen gave GFP, % of control 104; viability (ATP), % of control 102.
For Frmd5 #1, the entry reads GFP, % of control 36.6; viability (ATP), % of control 21.4.
Frmd5 #2 scored GFP, % of control 123 (active); viability (ATP), % of control 73.4.
Knock-down of Frmd5 #3 gave: GFP, % of control 88.9; viability (ATP), % of control 69.2.
Knock-down of Or8d23 #1 resulted in: GFP, % of control 18.4; viability (ATP), % of control 24.2.
After knock-down of Or8d23 #2 the results were GFP, % of control 100; viability (ATP), % of control 81.4.
Against Or8d23 #3, the values are GFP, % of control 71.8; viability (ATP), % of control 62.5.
Slc7a5 #1 showed GFP, % of control 77.4; viability (ATP), % of control 41.5.
With knock-down of Slc7a5 #2 the results were GFP, % of control 45.9; viability (ATP), % of control 32.7.
After knock-down of Slc7a5 #3, the screen gave GFP, % of control 96.7; viability (ATP), % of control 77.3.

Only “GFP, % of control” (5 entries from above):
Atp5me #1: 113
Atp5me #2: 57.2
Bend3 #1: 138 (active)
Bend3 #2: 79.4
Bend3 #3: 104

The results go on.
After knock-down of Tmem167b #1 the results were GFP, % of control 69.9; viability (ATP), % of control 81.1.
After knock-down of Tmem167b #2, the screen gave GFP, % of control 55.6; viability (ATP), % of control 37.1.
After knock-down of Tmem167b #3 the results were GFP, % of control 69.6; viability (ATP), % of control 81.6.
Fut9 #1 scored GFP, % of control 79.6; viability (ATP), % of control 99.3.
Fut9 #2 gave GFP, % of control 114; viability (ATP), % of control 153.
Fut9 #3 gave GFP, % of control 59.7; viability (ATP), % of control 92.3.
With knock-down of Zswim9 #1, the screen gave GFP, % of control 62.2; viability (ATP), % of control 44.4.
After knock-down of Zswim9 #2, the record shows GFP, % of control 110; viability (ATP), % of control 69.6.
After knock-down of Zswim9 #3, the record shows GFP, % of control 78.9; viability (ATP), % of control 74.4.
For Plaat3 #1, the entry reads GFP, % of control 85.2; viability (ATP), % of control 64.4.
For Plaat3 #2, the values are GFP, % of control 37.1; viability (ATP), % of control 23.9.
With knock-down of Plaat3 #3, the screen gave GFP, % of control 34.8; viability (ATP), % of control 48.5.
